Laboratory results reported in the supplement of paper PMC4604168 (melanoma cell lines).
This is one part of the list. Many values rest on one well or one pass, so single values are uncertain.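 The apoptosis fraction was the count of cleaved-PARP antibody-stained nuclei relative to all DNA-stained nuclei, imaged in 1,536-well plates. Screening doses were set so most cells survived, and baseline and induced cleaved-PARP levels vary greatly across cell lines.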

Tests used:
Assay in all cases: cleaved PARP positive nuclei fraction relative to DMSO control; melanoma cells; higher = more apoptosis
Details in all cases: library dose: low library concentration; 72 h
501Mel = tested on: 501Mel
A101D = tested on: A101D
A2058 = tested on: A2058
A375 = tested on: A375
C32 = tested on: C32
CBRC008 = tested on: CBRC008 (line from a melanoma biopsy)
CBRC014 = tested on: CBRC014 (line from a melanoma biopsy)
CBRC016 = tested on: CBRC016 (line from a melanoma biopsy)
CBRC017 = tested on: CBRC017 (line from a melanoma biopsy)
CBRC034 = tested on: CBRC034 (line from a melanoma biopsy)
COLO792 = tested on: COLO792
COLO800 = tested on: COLO800
COLO829 = tested on: COLO829
G361 = tested on: G361
IPC-298 = tested on: IPC-298
IST-MEL1 = tested on: IST-MEL1
LB2518-MEL = tested on: LB2518-MEL
LOXIMVI = tested on: LOXIMVI
MEL-HO = tested on: MEL-HO

Row | Structure (SMILES) | cleaved PARP positive nuclei fraction (501Mel) | cleaved PARP positive nuclei fraction (A101D) | cleaved PARP positive nuclei fraction (A2058) | cleaved PARP positive nuclei fraction (A375) | cleaved PARP positive nuclei fraction (C32) | cleaved PARP positive nuclei fraction (CBRC008) | cleaved PARP positive nuclei fraction (CBRC014) | cleaved PARP positive nuclei fraction (CBRC016) | cleaved PARP positive nuclei fraction (CBRC017) | cleaved PARP positive nuclei fraction (CBRC034) | cleaved PARP positive nuclei fraction (COLO792) | cleaved PARP positive nuclei fraction (COLO800) | cleaved PARP positive nuclei fraction (COLO829) | cleaved PARP positive nuclei fraction (G361) | cleaved PARP positive nuclei fraction (IPC-298) | cleaved PARP positive nuclei fraction (IST-MEL1) | cleaved PARP positive nuclei fraction (LB2518-MEL) | cleaved PARP positive nuclei fraction (LOXIMVI) | cleaved PARP positive nuclei fraction (MEL-HO)
1 | CS(=O)(=O)c1ccc(C(=O)Nc2ccc(Cl)c(-c3ccccn3)c2)c(Cl)c1 [vismodegib] + CN(c1ncccc1CNc1nc(Nc2ccc3c(c2)CC(=O)N3)ncc1C(F)(F)F)S(C)(=O)=O [PF562271] (first compound 1 µM, partner dose 0.08 µM) | 64.8% | 388% | 150% | 159% | 189% | 24.4% | 91.6% | 31.1% | 102% | 120% | 54.5% | 100% | 79.1% | 167% | 88.5% | 121% | 87.5% | 181% | 128%
2 | NC1(c2ccc(-c3nc4ccn5c(=O)[nH]nc5c4cc3-c3ccccc3)cc2)CCC1 + Cn1c(=O)n(-c2ccc(C(C)(C)C#N)cc2)c2c3cc(-c4cnc5ccccc5c4)ccc3ncc21 [NVP-BEZ235] (first compound 0.4 µM, partner dose 0.004 µM) | 96.7% | 118% | 104% | 547% | 84% | 150% | 84% | 43.9% | 74.4% | 37.1% | 294% | 40.1% | 189% | 136% | 205% | 230% | 68.1% | 46.5% | 108%
3 | CC1(C)CCC(c2ccc(Cl)cc2)=C(CN2CCN(c3ccc(C(=O)NS(=O)(=O)c4ccc(N[C@H](CCN5CCOCC5)CSc5ccccc5)c(S(=O)(=O)C(F)(F)F)c4)cc3)CC2)C1 + C[C@]1(O)C[C@@H](c2nc(-c3ccc4ccc(-c5ccccc5)nc4c3)c3c(N)nccn32)C1 [OSI906] (first compound 0.4 µM, partner dose 0.4 µM) | 445% | 89.2% | 225% | 892% | 652% | 651% | 1080% | 684% | 477% | 119% | 367% | 34.9% | 29.4% | 107% | 60.6% | 36.2% | 332% | 218% | 133%
4 | NC(=O)c1ccc(N(C(N)=O)c2c(F)cccc2F)nc1-c1ccc(F)cc1F + CC(=O)c1c(C)c2cnc(Nc3ccc(N4CCNCC4)cn3)nc2n(C2CCCC2)c1=O [palbociclib] (first compound 0.4 µM, partner dose 0.04 µM) | 237% | 57.9% | 60% | 102% | 83.3% | 59% | 107% | 95.9% | 118% | 49.2% | 70.6% | 129% | 68.3% | 139% | 89.7% | 70.5% | 144% | 327% | 134%
5 | CN(c1ncccc1CNc1nc(Nc2ccc3c(c2)CC(=O)N3)ncc1C(F)(F)F)S(C)(=O)=O + Nc1nc(F)nc2c1ncn2[C@@H]1O[C@H](CO)[C@@H](O)[C@@H]1O [fludarabine] (first compound 0.08 µM, partner dose 0.2 µM) | 8360% | 154% | 82.1% | 1410% | 622% | 122% | 95.4% | 58.6% | 82.9% | 30.4% | 136% | 52.2% | 86.1% | 182% | 45.1% | 136% | 92.7% | 34.4% | 64.1%
6 | CCN(CC)CCNC(=O)c1c(C)[nH]c(/C=C2\C(=O)Nc3ccc(F)cc32)c1C [sunitinib] + CN1CCN(c2ccc3nc(-c4c(N)c5c(F)cccc5[nH]c4=O)[nH]c3c2)CC1 [Dovitinib] (first compound 0.4 µM, partner dose 0.1 µM) | 186% | 113% | 112% | 156% | 90% | 60.4% | 99.9% | 110% | 127% | 155% | 63.5% | 81.7% | 153% | 117% | 101% | 31.2% | 128% | 91.8% | 72.4%
7 | CCCCCCCCc1ccc(CCC(N)(CO)CO)cc1 [fingolimod] + Nc1ncn([C@H]2C[C@H](O)[C@@H](CO)O2)c(=O)n1 [decitabine] (first compound 2 µM, partner dose 0.1 µM) | 184% | 183% | 182% | 48.1% | 282% | 78.3% | 101% | 90.7% | 115% | 38.7% | 90% | 102% | 163% | 63.6% | 182% | 279% | 224% | 108% | 298%
8 | Cn1sc(=O)n(Cc2ccccc2)c1=O + C[C@]1(O)C[C@@H](c2nc(-c3ccc4ccc(-c5ccccc5)nc4c3)c3c(N)nccn32)C1 [OSI906] (first compound 0.4 µM, partner dose 0.4 µM) | 332% | 113% | 109% | 286% | 76.5% | 75.2% | 114% | 83.1% | 128% | 41.4% | 118% | 185% | 103% | 156% | 58.7% | 32.1% | 56.5% | 75.8% | 88.9%
9 | NC1(c2ccc(-c3nc4ccn5c(=O)[nH]nc5c4cc3-c3ccccc3)cc2)CCC1 + OCc1c[nH]c2ccccc12 [Indole-3-carbinol] (first compound 0.4 µM, partner dose 0.8 µM) | 92% | 69.6% | 186% | 122% | 85.2% | 320% | 81.6% | 102% | 70.5% | 71.8% | 122% | 83.1% | 85.2% | 91.1% | 142% | 64.5% | 106% | 141% | 151%
10 | Cn1cnc2c(F)c(Nc3ccc(Br)cc3Cl)c(C(=O)NOCCO)cc21 [selumetinib] + CO[C@H]1C[C@@H]2CC[C@@H](C)[C@@](O)(O2)C(=O)C(=O)N2CCCC[C@H]2C(=O)O[C@H]([C@H](C)C[C@@H]2CC[C@@H](OCCO)[C@H](OC)C2)CC(=O)[C@H](C)/C=C(\C)[C@@H](O)[C@@H](OC)C(=O)[C@H](C)C[C@H](C)/C=C/C=C/C=C/1C [everolimus] (first compound 0.015 µM, partner dose 0.02 µM) | 10300% | 42.6% | 149% | 1050% | 87.1% | 191% | 82.3% | 118% | 162% | 106% | 182% | 101% | 97.7% | 198% | 75.9% | 160% | 178% | 30.9% | 172%
11 | C[C@@H](N)c1ccc(C(=O)Nc2ccnc3[nH]ccc23)cc1 + O=C(O)[C@@H]1[O][Sb](=[O])([O][Sb]2(=[O])[O][C@H]([C@H](O)CO)[C@H](O)[C@H](C(=O)O)[O]2)[O][C@H]([C@H](O)CO)[C@@H]1O [stibogluconate] (first compound 0.4 µM, partner dose 2 µM) | 51.2% | 117% | 105% | 60.3% | 101% | 52% | 134% | 90% | 83.5% | 148% | 86.4% | 146% | 60.2% | 121% | 39.8% | 64.6% | 46.5% | 148% | 93.3%
12 | C[C@@H](N)c1ccc(C(=O)Nc2ccnc3[nH]ccc23)cc1 + C[C@]1(O)C[C@@H](c2nc(-c3ccc4ccc(-c5ccccc5)nc4c3)c3c(N)nccn32)C1 [OSI906] (first compound 0.4 µM, partner dose 0.4 µM) | 80.3% | 50.9% | 226% | 783% | 173% | 353% | 249% | 125% | 168% | 120% | 217% | 121% | 101% | 126% | 132% | 61% | 138% | 86.9% | 139%
13 | C[C@@H](N)c1ccc(C(=O)Nc2ccnc3[nH]ccc23)cc1 + NC1(c2ccc(-c3nc4ccn5c(=O)[nH]nc5c4cc3-c3ccccc3)cc2)CCC1 [MK2206] (first compound 0.4 µM, partner dose 0.4 µM) | 267% | 47.9% | 63.1% | 101% | 103% | 158% | 117% | 147% | 123% | 121% | 203% | 39.5% | 105% | 215% | 127% | 91.7% | 294% | 182% | 55.9%
14 | CC(=O)O[C@@]12CO[C@@H]1C[C@H](O)[C@@]1(C)C(=O)[C@H](O)C3=C(C)[C@@H](OC(=O)[C@H](O)[C@@H](NC(=O)OC(C)(C)C)c4ccccc4)C[C@@](O)([C@@H](OC(=O)c4ccccc4)[C@H]21)C3(C)C [Docetaxel] + Cc1nc(Nc2ncc(C(=O)Nc3c(C)cccc3Cl)s2)cc(N2CCN(CCO)CC2)n1 [dasatanib] (first compound 0.0001 µM, partner dose 0.004 µM) | 142% | 411% | 2700% | 2500% | 139% | 517% | 257% | 257% | 289% | 58.2% | 988% | 281% | 457% | 1000% | 437% | 143% | 69.9% | 90.6% | 446%
15 | CC1(C)CCC(c2ccc(Cl)cc2)=C(CN2CCN(c3ccc(C(=O)NS(=O)(=O)c4ccc(N[C@H](CCN5CCOCC5)CSc5ccccc5)c(S(=O)(=O)C(F)(F)F)c4)cc3)CC2)C1 + Cn1sc(=O)n(Cc2ccccc2)c1=O [TDZD-8] (first compound 0.4 µM, partner dose 0.4 µM) | 68.5% | 171% | 127% | 597% | 236% | 371% | 529% | 1040% | 361% | 161% | 401% | 171% | 103% | 121% | 85.8% | 95.5% | 169% | 151% | 98.7%
16 | CC(=O)O[C@@]12CO[C@@H]1C[C@H](O)[C@@]1(C)C(=O)[C@H](O)C3=C(C)[C@@H](OC(=O)[C@H](O)[C@@H](NC(=O)OC(C)(C)C)c4ccccc4)C[C@@](O)([C@@H](OC(=O)c4ccccc4)[C@H]21)C3(C)C [Docetaxel] + Cn1nnc2c(C(N)=O)ncn2c1=O [temozolomide] (first compound 0.0001 µM, partner dose 2 µM) | 271% | 90.3% | 4720% | 7220% | 96.9% | 232% | 223% | 137% | 254% | 193% | 529% | 351% | 219% | 671% | 445% | 285% | 510% | 201% | 213%

Shown as comma-separated lines: entries from further up
Row,Structure (SMILES),cleaved PARP positive nuclei fraction (501Mel),cleaved PARP positive nuclei fraction (A101D),cleaved PARP positive nuclei fraction (A2058),cleaved PARP positive nuclei fraction (A375),cleaved PARP positive nuclei fraction (C32),cleaved PARP positive nuclei fraction (CBRC008),cleaved PARP positive nuclei fraction (CBRC014),cleaved PARP positive nuclei fraction (CBRC016),cleaved PARP positive nuclei fraction (CBRC017),cleaved PARP positive nuclei fraction (CBRC034),cleaved PARP positive nuclei fraction (COLO792),cleaved PARP positive nuclei fraction (COLO800),cleaved PARP positive nuclei fraction (COLO829),cleaved PARP positive nuclei fraction (G361),cleaved PARP positive nuclei fraction (IPC-298),cleaved PARP positive nuclei fraction (IST-MEL1),cleaved PARP positive nuclei fraction (LB2518-MEL),cleaved PARP positive nuclei fraction (LOXIMVI),cleaved PARP positive nuclei fraction (MEL-HO)
5,"CN(c1ncccc1CNc1nc(Nc2ccc3c(c2)CC(=O)N3)ncc1C(F)(F)F)S(C)(=O)=O + Nc1nc(F)nc2c1ncn2[C@@H]1O[C@H](CO)[C@@H](O)[C@@H]1O [fludarabine] (first compound 0.08 µM, partner dose 0.2 µM)",8360%,154%,82.1%,1410%,622%,122%,95.4%,58.6%,82.9%,30.4%,136%,52.2%,86.1%,182%,45.1%,136%,92.7%,34.4%,64.1%
6,"CCN(CC)CCNC(=O)c1c(C)[nH]c(/C=C2\C(=O)Nc3ccc(F)cc32)c1C [sunitinib] + CN1CCN(c2ccc3nc(-c4c(N)c5c(F)cccc5[nH]c4=O)[nH]c3c2)CC1 [Dovitinib] (first compound 0.4 µM, partner dose 0.1 µM)",186%,113%,112%,156%,90%,60.4%,99.9%,110%,127%,155%,63.5%,81.7%,153%,117%,101%,31.2%,128%,91.8%,72.4%
